# Data as given in article PMC6786873.
# The chains behind the UniProt entries cited, without tags or fusion partners.
# UniProt O94915: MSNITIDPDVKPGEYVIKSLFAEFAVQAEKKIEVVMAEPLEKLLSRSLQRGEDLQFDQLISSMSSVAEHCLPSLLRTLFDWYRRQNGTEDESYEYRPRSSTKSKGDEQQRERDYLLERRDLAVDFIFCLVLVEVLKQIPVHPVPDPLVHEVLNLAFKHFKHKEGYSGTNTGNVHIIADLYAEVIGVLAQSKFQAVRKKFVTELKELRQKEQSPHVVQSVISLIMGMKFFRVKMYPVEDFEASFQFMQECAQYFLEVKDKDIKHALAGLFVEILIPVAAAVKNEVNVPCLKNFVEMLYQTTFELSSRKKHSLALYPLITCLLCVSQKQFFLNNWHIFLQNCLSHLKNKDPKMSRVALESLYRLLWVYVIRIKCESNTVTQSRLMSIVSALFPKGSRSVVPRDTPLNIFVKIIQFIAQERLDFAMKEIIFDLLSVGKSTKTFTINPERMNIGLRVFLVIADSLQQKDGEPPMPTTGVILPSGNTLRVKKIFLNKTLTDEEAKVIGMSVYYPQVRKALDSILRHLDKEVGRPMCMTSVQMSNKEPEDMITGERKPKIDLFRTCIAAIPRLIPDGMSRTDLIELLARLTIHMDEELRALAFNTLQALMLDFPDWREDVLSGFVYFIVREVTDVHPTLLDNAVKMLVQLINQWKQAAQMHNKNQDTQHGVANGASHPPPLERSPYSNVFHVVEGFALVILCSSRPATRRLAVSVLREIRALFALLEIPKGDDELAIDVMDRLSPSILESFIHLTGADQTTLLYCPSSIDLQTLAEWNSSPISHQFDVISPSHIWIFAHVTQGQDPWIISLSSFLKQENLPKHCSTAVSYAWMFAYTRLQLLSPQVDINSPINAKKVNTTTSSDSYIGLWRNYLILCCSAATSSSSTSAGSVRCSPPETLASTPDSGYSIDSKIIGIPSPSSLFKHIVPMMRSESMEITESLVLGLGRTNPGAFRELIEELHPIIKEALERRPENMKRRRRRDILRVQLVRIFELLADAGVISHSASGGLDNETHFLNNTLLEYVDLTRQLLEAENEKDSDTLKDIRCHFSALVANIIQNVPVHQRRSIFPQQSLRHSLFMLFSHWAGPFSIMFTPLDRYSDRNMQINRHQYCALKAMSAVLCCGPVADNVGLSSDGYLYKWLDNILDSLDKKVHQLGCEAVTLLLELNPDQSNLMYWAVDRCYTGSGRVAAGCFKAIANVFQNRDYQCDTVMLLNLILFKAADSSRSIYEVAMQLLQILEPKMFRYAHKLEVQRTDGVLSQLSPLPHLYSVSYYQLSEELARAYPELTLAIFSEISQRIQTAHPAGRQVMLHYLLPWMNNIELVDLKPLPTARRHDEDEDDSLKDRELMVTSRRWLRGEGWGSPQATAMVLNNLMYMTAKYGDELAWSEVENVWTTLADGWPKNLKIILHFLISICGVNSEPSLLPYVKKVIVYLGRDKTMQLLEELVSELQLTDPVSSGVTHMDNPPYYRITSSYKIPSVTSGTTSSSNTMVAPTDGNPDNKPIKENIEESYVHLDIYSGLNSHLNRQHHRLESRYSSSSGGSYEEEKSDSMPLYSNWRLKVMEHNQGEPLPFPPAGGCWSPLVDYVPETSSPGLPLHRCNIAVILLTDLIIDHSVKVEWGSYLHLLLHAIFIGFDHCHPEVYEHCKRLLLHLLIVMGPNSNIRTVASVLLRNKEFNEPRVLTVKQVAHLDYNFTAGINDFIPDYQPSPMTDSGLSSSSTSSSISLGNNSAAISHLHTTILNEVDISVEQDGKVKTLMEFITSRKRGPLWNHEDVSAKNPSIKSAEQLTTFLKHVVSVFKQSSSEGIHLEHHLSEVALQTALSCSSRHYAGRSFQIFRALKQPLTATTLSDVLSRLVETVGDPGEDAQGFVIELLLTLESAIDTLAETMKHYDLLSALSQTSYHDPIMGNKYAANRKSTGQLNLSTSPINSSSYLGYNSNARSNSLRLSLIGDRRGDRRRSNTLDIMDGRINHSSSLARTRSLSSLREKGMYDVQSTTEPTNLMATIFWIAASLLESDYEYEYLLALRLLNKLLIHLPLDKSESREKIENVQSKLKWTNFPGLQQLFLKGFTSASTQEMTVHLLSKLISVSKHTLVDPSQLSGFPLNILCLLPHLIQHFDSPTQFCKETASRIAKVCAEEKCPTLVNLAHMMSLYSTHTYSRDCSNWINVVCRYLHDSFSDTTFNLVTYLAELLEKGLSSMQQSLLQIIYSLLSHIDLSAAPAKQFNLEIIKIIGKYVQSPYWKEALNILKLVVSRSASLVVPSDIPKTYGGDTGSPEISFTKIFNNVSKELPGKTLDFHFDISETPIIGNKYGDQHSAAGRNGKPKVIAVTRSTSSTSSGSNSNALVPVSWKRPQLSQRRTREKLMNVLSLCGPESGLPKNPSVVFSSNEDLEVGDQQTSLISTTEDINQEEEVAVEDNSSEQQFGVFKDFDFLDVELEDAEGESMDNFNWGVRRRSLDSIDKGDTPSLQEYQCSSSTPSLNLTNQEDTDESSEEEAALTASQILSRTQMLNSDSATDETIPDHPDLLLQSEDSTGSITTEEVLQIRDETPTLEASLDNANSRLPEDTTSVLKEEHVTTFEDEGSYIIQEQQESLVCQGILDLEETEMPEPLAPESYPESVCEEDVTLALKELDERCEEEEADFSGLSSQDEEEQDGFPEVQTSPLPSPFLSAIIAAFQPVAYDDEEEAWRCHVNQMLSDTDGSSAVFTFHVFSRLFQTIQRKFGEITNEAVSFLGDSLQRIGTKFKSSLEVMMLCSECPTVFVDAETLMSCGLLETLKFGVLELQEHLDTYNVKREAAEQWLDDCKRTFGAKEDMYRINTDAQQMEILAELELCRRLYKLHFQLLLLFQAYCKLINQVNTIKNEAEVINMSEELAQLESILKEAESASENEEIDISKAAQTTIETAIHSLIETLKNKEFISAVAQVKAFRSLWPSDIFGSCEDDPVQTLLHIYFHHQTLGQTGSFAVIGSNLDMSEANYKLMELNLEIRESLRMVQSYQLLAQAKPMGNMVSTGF
# UniProt P19525: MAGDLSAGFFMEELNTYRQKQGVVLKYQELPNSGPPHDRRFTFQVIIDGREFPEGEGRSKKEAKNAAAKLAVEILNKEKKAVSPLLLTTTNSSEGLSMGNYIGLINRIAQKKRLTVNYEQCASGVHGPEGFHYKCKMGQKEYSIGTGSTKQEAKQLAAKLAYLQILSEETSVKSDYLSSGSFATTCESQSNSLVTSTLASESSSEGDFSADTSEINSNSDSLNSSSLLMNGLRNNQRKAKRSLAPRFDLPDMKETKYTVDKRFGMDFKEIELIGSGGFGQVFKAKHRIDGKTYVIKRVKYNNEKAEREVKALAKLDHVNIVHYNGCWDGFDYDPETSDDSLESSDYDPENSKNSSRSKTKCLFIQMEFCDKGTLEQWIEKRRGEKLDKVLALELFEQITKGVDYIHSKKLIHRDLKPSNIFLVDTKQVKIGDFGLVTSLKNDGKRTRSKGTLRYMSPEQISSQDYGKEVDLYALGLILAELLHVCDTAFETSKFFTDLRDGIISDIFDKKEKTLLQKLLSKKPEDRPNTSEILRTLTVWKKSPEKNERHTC
# No constants are given. Whether binding was seen depends on the method and setting. In cells and extracts the contact can be indirect. Some binding calls cover weakened binding; strength is not graded here.
# T1: NHLRC2 (NHL-repeat-containing protein 2) (human (endogenous in THP-1)) (UniProt Q8NBF2)
# T1 sequence: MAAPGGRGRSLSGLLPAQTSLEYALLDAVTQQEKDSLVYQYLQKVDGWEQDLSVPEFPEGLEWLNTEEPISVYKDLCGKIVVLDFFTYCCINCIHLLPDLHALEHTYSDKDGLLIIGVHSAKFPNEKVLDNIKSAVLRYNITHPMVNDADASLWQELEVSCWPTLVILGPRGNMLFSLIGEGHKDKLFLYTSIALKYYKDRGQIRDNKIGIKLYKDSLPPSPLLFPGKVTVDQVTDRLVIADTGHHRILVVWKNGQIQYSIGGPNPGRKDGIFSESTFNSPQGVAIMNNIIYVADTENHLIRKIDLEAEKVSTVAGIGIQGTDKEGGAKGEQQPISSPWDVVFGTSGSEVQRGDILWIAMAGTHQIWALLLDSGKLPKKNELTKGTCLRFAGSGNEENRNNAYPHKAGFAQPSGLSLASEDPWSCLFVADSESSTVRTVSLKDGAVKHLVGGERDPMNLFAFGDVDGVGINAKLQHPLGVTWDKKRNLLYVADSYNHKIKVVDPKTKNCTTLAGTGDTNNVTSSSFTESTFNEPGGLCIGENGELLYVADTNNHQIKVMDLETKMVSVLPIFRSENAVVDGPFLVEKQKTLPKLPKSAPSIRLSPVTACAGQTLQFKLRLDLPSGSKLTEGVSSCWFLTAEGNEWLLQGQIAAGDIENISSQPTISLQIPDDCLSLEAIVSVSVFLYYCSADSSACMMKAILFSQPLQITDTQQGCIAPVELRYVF
# Molecular target: T1, NHLRC2 (NHL-repeat-containing protein 2) (human (endogenous in THP-1))
# Experiment: co-IP; anti-NHLRC2 antibody (HPA038493) on nondenaturing THP-1 lysates, protein A magnetic beads, IgG antibody as control; partners detected by blot with their own antibodies and VeriBlot
row,binding,Molecule
1,binds,FRYL (FRY like transcription coactivator) (from UniProt O94915 1-3013)
2,binds,EIF2AK2 (eukaryotic translation initiation factor 2 alpha kinase 2) (from UniProt P19525 1-551)
3,binds,"KLHL13 (Kelch like family member 13) (protein, UniProt Q9P2N7 1-655) MPLKWKTSSPAIWKFPVPVLKTSRSTPLSPAYISLVEEEDQHMKLSLGGSEMGLSSHLQSSKAGPTRIFTSNTHSSVVLQGFDQLRLEGLLCDVTLMPGDTDDAFPVHRVMMASASDYFKAMFTGGMKEQDLMCIKLHGVSKVGLRKIIDFIYTAKLSLNMDNLQDTLEAASFLQILPVLDFCKVFLISGVTLDNCVEVGRIANTYNLTEVDKYVNSFVLKNFPALLSTGEFLKLPFERLAFVLSSNSLKHCTELELFKATCRWLRLEEPRMDFAAKLMKNIRFPLMTPQELINYVQTVDFMRTDNTCVNLLLEASNYQMMPYMQPVMQSDRTAIRSDTTHLVTLGGVLRQQLVVSKELRMYDEKAHEWKSLAPMDAPRYQHGIAVIGNFLYVVGGQSNYDTKGKTAVDTVFRFDPRYNKWMQVASLNEKRTFFHLSALKGYLYAVGGRNAAGELPTVECYNPRTNEWTYVAKMSEPHYGHAGTVYGGVMYISGGITHDTFQKELMCFDPDTDKWIQKAPMTTVRGLHCMCTVGERLYVIGGNHFRGTSDYDDVLSCEYYSPILDQWTPIAAMLRGQSDVGVAVFENKIYVVGGYSWNNRCMVEIVQKYDPDKDEWHKVFDLPESLGGIRACTLTVFPPEETTPSPSRESPLSAP"
